Experimental data: PubChem BioAssay AID1224828 (NIAID, 2016)
Screen: 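Regulators linking TLR4 signalling to p65 nuclear translocation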 (primary screen). System: mouse RAW264.7 G9 macrophage reporter cells (GFP-p65, Tnf promoter-mCherry). Reagents: siRNA pool against mouse genes, 100 nM. Time to read-out: 2 days siRNA transfection, then 40 min LPS before fixation. Conditions: LPS (Salmonella minnesota R595) at 10 ng/ml. Read-out: 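Imaged p65 nuclear translocation ratio, normalised to the plate median, converted to robust z-scores and averaged across two replicates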. Direction: p65 translocation robust z-score: higher = more nuclear NF-kappaB p65 after LPS than the plate median; nuclear/cytoplasmic p65 ratio: higher = more nuclear NF-kappaB p65. Call rule: 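Called active when z exceeds 3.3 or falls under -1.56 (median of Tlr4 controls), giving activity score of at least 50; no calls for control wells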. Meaning of the calls: active = hit (p65 shift raised or lowered); inactive = no clear change.
Here is a random part of about 17,000 deposited reagents. 762 of all reagents (4.5%) count as active. 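Active calls include both raised and lowered p65 entry, mostly lowered; wells with fewer than 50 cells lack a z-score.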 Raw values are not corrected between plates. A number with no mark means an inactive call. The numbers tell different reagents against one gene apart.

| gene | reagent | p65 translocation robust z-score | nuclear/cytoplasmic p65 ratio, rep 1 | nuclear/cytoplasmic p65 ratio, rep 2 | low cell count flag |
| --- | --- | --- | --- | --- | --- |
| Ube2a | 1 | – | 1.36 | 0.998 | fewer than 50 cells per well; well left out of scoring |
| Ltb4r2 | 1 | -0.96 | 1.35 | 1.47 | enough cells to score |
| Cdc73 | 1 | 0.86 | 1.81 | 1.68 | enough cells to score |
| Spag17 | 1 | – | 1.02 | 1.27 | fewer than 50 cells per well; well left out of scoring |
| Gnat1 | 1 | 2.07 | 1.72 | 1.96 | enough cells to score |
| Tyrobp | 1 | – | 1.38 | 1.24 | fewer than 50 cells per well; well left out of scoring |
| Npas1 | 1 | 0.91 | 1.62 | 1.49 | enough cells to score |
| Vav1 | 1 | 0.03 | 1.55 | 1.48 | enough cells to score |
| Dnajc4 | 1 | 1.86 | 1.78 | 1.54 | enough cells to score |
| Uchl4 | 1 | – | 1.44 | 1.25 | fewer than 50 cells per well; well left out of scoring |
| A930018M24Rik | 1 | -0.58 | 1.44 | 1.45 | enough cells to score |
| Cyp2s1 | 1 | 0.8 | 1.76 | 1.84 | enough cells to score |
| Bcl9l | 1 | – | 1.12 | 1.24 | fewer than 50 cells per well; well left out of scoring |
| Insl3 | 1 | 0.16 | 1.47 | 1.43 | enough cells to score |
| Ubp1 | 1 | -0.15 | 1.39 | 1.21 | enough cells to score |
| Gdap10 | 1 | -0.94 | 1.47 | 1.32 | enough cells to score |
| Slc22a30 | 1 | 1.25 | 1.83 | 1.93 | enough cells to score |
| Tmed6 | 1 | 0.47 | 1.14 | 1.48 | enough cells to score |
| Bicc1 | 1 | -0.03 | 1.43 | 1.52 | enough cells to score |
| Or6c33 | 1 | -0.04 | 1.44 | 1.3 | enough cells to score |
| Ggn | 1 | – | 1.04 | 1.3 | fewer than 50 cells per well; well left out of scoring |
| Dhrs11 | 1 | -0.52 | 1.5 | 1.57 | enough cells to score |
| Hbs1l | 1 | 0.16 | 1.65 | 1.58 | enough cells to score |
| Btbd3 | 1 | 0.89 | 1.41 | 1.65 | enough cells to score |
| Rpl27 | 1 | 0.01 | 1.42 | 1.33 | enough cells to score |
| Tmem125 | 1 | – | 1.23 | 1.15 | fewer than 50 cells per well; well left out of scoring |
| 2010204K13Rik | 1 | – | 1.6 | 1.46 | fewer than 50 cells per well; well left out of scoring |
| Nop9 | 1 | 1.49 | 1.64 | 1.61 | enough cells to score |
| Gprasp3 | 1 | 2.09 | 1.71 | 1.66 | enough cells to score |
| Dusp3 | 1 | – | 1.39 | 1.25 | fewer than 50 cells per well; well left out of scoring |
| Zfp426 | 1 | -0.02 | 1.35 | 1.3 | enough cells to score |
| G3bp2 | 1 | 1.43 | 1.68 | 1.52 | enough cells to score |
| Ppnr | 1 | 0.22 | 1.43 | 1.22 | enough cells to score |
| Cadm3 | 1 | – | 1.6 | 0 | fewer than 50 cells per well; well left out of scoring |
| Serpina11 | 1 | -1.21 | 1.32 | 1.12 | enough cells to score |
| Bcar1 | 1 | 0.21 | 1.58 | 1.71 | enough cells to score |
| H2-Ea | 1 | 1.32 | 1.63 | 1.52 | enough cells to score |
| Prkab2 | 1 | 0.63 | 1.51 | 1.24 | enough cells to score |
| Tgoln2 | 1 | – | 1.36 | 1.28 | fewer than 50 cells per well; well left out of scoring |
| Tmem94 | 1 | – | 1.52 | 1.49 | fewer than 50 cells per well; well left out of scoring |
| Pfkl | 1 | 0.75 | 1.73 | 1.53 | enough cells to score |
| Bltp3b | 1 | 1.49 | 1.66 | 1.38 | enough cells to score |
| Ptgs2 | 1 | -1.03 | 1.38 | 1.25 | enough cells to score |
| Fam204a | 1 | -0.13 | 1.57 | 1.55 | enough cells to score |
| Or8g19 | 1 | – | 1.63 | 1.46 | fewer than 50 cells per well; well left out of scoring |
| Polr3e | 1 | -0.48 | 1.35 | 1.13 | enough cells to score |
| Ryr1 | 1 | -0.52 | 1.48 | 1.41 | enough cells to score |
| Aak1 | 1 | – | 1.43 | 1.96 | fewer than 50 cells per well; well left out of scoring |
| Nploc4 | 1 | -0.65 | 1.51 | 1.58 | enough cells to score |
| Xylb | 1 | -0.05 | 1.54 | 1.49 | enough cells to score |
| Or5ak25 | 1 | 0.18 | 1.48 | 1.25 | enough cells to score |
| Prc1 | 1 | – | 1.45 | 1.25 | fewer than 50 cells per well; well left out of scoring |
| Tnfsf10 | 1 | -0.44 | 1.45 | 1.46 | enough cells to score |
| Kcnc1 | 1 | 0.51 | 1.6 | 1.4 | enough cells to score |
| Kcnc1 | 2 | – | 1.43 | 1.65 | fewer than 50 cells per well; well left out of scoring |
| Parp8 | 1 | 1.37 | 1.75 | 2.04 | enough cells to score |
| BC061195 | 1 | -0.45 | 1.39 | 1.3 | enough cells to score |
| Gsx2 | 1 | -0.33 | 1.59 | 1.5 | enough cells to score |
| Ciita | 1 | 0.53 | 1.71 | 1.68 | enough cells to score |

No new results follow: entries from further up.
| gene | reagent | p65 translocation robust z-score | nuclear/cytoplasmic p65 ratio, rep 1 | nuclear/cytoplasmic p65 ratio, rep 2 | low cell count flag |
| --- | --- | --- | --- | --- | --- |
| Uchl4 | 1 | – | 1.44 | 1.25 | fewer than 50 cells per well; well left out of scoring |
| A930018M24Rik | 1 | -0.58 | 1.44 | 1.45 | enough cells to score |
| Cyp2s1 | 1 | 0.8 | 1.76 | 1.84 | enough cells to score |
| Bcl9l | 1 | – | 1.12 | 1.24 | fewer than 50 cells per well; well left out of scoring |
| Insl3 | 1 | 0.16 | 1.47 | 1.43 | enough cells to score |
| Ubp1 | 1 | -0.15 | 1.39 | 1.21 | enough cells to score |
| Gdap10 | 1 | -0.94 | 1.47 | 1.32 | enough cells to score |
| Slc22a30 | 1 | 1.25 | 1.83 | 1.93 | enough cells to score |
| Tmed6 | 1 | 0.47 | 1.14 | 1.48 | enough cells to score |
